One assay concerns the target T1, MBP-RBM7^1–86 (human) (UniProt Q9Y580).
T1 sequence: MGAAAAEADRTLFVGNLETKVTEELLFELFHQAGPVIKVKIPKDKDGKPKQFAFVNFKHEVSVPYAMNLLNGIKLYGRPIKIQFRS
In words: pull-down; MBP-RBM7 1-86, GST-ZCCHC8^Pro and TRX-SAP145^Pro co-expressed; MBP-binding amylose beads.

By UniProt entry, the sequences of proteins in these tests, tags left out. Residues count along the entry.
UniProt Q13435, residues 603-647: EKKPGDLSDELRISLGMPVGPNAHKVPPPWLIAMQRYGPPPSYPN

In a further assay the target is T2, GST-tagged hMTR4 (human) (UniProt P42285).
T2 sequence: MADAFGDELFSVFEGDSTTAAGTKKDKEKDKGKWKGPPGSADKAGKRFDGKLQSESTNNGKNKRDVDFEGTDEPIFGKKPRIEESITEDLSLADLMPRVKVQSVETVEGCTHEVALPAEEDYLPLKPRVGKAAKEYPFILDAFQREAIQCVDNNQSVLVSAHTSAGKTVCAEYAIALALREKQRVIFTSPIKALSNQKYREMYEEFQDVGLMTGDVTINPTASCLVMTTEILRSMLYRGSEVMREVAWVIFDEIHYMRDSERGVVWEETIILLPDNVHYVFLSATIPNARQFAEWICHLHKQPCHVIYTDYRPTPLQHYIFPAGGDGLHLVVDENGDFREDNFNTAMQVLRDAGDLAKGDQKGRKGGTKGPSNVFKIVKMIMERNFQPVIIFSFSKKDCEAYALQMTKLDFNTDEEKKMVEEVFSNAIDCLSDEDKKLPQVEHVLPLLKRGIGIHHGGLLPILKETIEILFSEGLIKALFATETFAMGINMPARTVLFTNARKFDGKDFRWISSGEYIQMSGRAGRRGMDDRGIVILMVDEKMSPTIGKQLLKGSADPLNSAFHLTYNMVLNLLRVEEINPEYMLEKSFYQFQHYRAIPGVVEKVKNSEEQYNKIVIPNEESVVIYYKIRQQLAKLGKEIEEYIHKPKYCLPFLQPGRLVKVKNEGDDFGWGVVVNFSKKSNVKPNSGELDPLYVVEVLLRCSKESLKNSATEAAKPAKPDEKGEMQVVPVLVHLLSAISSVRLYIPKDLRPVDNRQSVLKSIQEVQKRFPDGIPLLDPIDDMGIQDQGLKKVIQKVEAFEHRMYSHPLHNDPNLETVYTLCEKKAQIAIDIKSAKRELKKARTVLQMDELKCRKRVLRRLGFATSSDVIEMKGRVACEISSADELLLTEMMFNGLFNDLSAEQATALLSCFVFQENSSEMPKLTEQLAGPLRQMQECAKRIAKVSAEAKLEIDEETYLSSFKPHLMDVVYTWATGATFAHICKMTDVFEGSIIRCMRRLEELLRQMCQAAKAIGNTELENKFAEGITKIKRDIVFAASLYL
The assay can be described thus: pull-down; GST pull-down; proteins expressed individually in bacteria, cells mixed before lysis; GSH-Sepharose beads, buffer with 500 mM NaCl; Coomassie-stained SDS-PAGE.

The target in assay [1] is GST-tagged SAP145^Pro (SAP145 residues 603–647) (UniProt Q13435). In words: pull-down; GST pull-down; GST-tagged bait co-expressed with the partner in bacteria; glutathione sepharose beads with lysate 2 h, 20 mM Tris/HCl pH 7.5, 500 mM NaCl, 0.1% NP40; eluted with 30 mM glutathione; Coomassie-stained SDS-PAGE.

No constants are given. Whether binding was seen depends on the method and setting. In cells and extracts the contact can be indirect. Some results given as binding are weak or reduced against the parent protein; the word gives no strength. Where a sequence is shown, tags or fusion partners need not be part of it.

For the molecule “TRX-SAP145^Pro (from UniProt Q13435 603-647) (domain or fragment)”, in the assay with MBP-RBM7^1–86 (human), the binding entry is listed as “binds”.

B1: Z-tagged ZCCHC8 (protein, UniProt Q6NZY4 1-707)
chain: MAAEVYFGDLELFEPFDHPEESIPKPVHTRFKDDDGDEEDENGVGDAELRERLRQCEETIEQLRAENQELKRKLNILTRPSGILVNDTKLDGPILQILFMNNAISKQYHQEIEEFVSNLVKRFEEQQKNDVEKTSFNLLPQPSSIVLEEDHKVEESCAIKNNKEAFSVVGSVLYFTNFCLDKLGQPLLNENPQLSEGWEIPKYHQVFSHIVSLEGQEIQVKAKRPKPHCFNCGSEEHQMKDCPMPRNAARISEKRKEYMDACGEANNQNFQQRYHAEEVEERFGRFKPGVISEELQDALGVTDKSLPPFIYRMRQLGYPPGWLKEAELENSGLALYDGKDGTDGETEVGEIQQNKSVTYDLSKLVNYPGFNISTPRGIPDEWRIFGSIPMQACQQKDVFANYLTSNFQAPGVKSGNKRSSSHSSPGSPKKQKNESNSAGSPADMELDSDMEVPHGSQSSESFQFQPPLPPDTPPLPRGTPPPVFTPPLPKGTPPLTPSDSPQTRTASGAVDEDALTLEELEEQQRRIWAALEQAESVNSDSDVPVDTPLTGNSVASSPCPNELDLPVPEGKTSEKQTLDEPEVPEIFTKKSEAGHASSPDSEVTSLCQKEKAELAPVNTEGALLDNGSVVPNCDISNGGSQKLFPADTSPSTATKIHSPIPDMSKFATGITPFEFENMAESTGMYLRIRSLLKNSPRNQQKNKKASE
For B1, the binding entry in the assay with GST-tagged hMTR4 (human) was “binds”.

B2: His-Z-tagged RBM7^1–86 (domain or fragment, UniProt Q9Y580 1-86)
chain: MGAAAAEADRTLFVGNLETKVTEELLFELFHQAGPVIKVKIPKDKDGKPKQFAFVNFKHEVSVPYAMNLLNGIKLYGRPIKIQFRS
For the molecule B2, the binding entry in assay [1] is recorded as “binds”.

B3: RBM7^RRM patch 1 mutant (Leu25Glu and Leu29Glu) (domain or fragment, UniProt Q9Y580 1-86)
chain: MGAAAAEADRTLFVGNLETKVTEEELFEEFHQAGPVIKVKIPKDKDGKPKQFAFVNFKHEVSVPYAMNLLNGIKLYGRPIKIQFRS
Turning to B3, the binding result in assay [1] is listed as “binds”.

For the origin of these results see article PMC5146272, “Structure of the RBM7–ZCCHC8 core of the NEXT complex reveals connections to splicing factors” (Nature Communications, 2016).
